Results are given in words; binding and its absence hold for the method and conditions named. Binding seen in cells or lysates may run through a third protein. Some binding calls cover weakened binding; strength is not graded here.
How the values were obtained:
[1] = target: T1, TWIST1 (mouse (endogenous in embryonic mid and hindbrain tissue)) (UniProt P26687); assay: co-IP; nuclear fraction of protein extracted from mouse embryonic hindbrain tissue (E8.5); nuclear buffer 50 mM Tris-HCl pH 8, 137.5 mM NaCl, 0.1% Triton X-100, 0.5% SDS, 10% glycerol, 5 mM EDTA; anti-TWIST1 antibodies, Protein A/G magnetic beads; western blot
T1 sequence: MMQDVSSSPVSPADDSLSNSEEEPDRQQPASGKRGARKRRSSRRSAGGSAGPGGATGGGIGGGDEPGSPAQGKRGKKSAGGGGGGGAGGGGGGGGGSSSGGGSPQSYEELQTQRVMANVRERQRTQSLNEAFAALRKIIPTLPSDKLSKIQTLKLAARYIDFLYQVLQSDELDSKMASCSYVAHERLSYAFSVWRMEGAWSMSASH

Amino acid sequences for entries named in this document (tags omitted).
UniProt Q02248: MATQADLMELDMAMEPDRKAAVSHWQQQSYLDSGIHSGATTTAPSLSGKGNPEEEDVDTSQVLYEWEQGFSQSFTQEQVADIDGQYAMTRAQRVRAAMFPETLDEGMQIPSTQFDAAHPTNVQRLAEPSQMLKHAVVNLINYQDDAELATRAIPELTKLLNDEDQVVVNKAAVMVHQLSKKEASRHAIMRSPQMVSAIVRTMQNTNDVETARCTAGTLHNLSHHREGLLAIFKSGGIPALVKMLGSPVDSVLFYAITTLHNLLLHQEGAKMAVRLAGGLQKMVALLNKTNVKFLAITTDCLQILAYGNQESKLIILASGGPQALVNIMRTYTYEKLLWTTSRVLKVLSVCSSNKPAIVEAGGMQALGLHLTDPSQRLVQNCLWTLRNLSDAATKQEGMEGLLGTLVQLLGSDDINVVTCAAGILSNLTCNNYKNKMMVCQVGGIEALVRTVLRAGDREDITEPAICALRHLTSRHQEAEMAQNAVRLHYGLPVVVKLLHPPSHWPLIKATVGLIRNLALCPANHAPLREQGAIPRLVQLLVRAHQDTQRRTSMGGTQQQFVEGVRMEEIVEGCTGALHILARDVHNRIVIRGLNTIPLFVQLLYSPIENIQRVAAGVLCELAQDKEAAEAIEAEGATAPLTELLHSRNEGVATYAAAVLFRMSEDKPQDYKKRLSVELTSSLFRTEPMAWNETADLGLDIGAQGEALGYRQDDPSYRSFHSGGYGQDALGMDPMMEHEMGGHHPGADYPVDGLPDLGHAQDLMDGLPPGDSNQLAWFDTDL

[2] = target: T1, TWIST1 (mouse (endogenous in embryonic mid and hindbrain tissue)); assay: co-IP; cytosolic fraction of protein extracted from mouse embryonic hindbrain tissue (E8.5-E9.0; methods say E8.5 and E9.5); cytoplasmic buffer 50 mM Tris-HCl pH 8, 137.5 mM NaCl, 0.05% Triton X-100, 10% glycerol, 5 mM EDTA; anti-TWIST1 antibodies, Protein A/G magnetic beads; western blot

binding [1]: binds weakly | binding [2]: binds
Substance: β-catenin (from UniProt Q02248 1-781)

— paper PMC9440756
